This passage reports binding results from publication PMC13383472.

Protein sequences, listed by entry. Tags and fused reporters are not part of them. Lines headed by an entry give the natural chain unless they say otherwise; changes in a name come on top. Residues count along the entry.
UniProt P13612: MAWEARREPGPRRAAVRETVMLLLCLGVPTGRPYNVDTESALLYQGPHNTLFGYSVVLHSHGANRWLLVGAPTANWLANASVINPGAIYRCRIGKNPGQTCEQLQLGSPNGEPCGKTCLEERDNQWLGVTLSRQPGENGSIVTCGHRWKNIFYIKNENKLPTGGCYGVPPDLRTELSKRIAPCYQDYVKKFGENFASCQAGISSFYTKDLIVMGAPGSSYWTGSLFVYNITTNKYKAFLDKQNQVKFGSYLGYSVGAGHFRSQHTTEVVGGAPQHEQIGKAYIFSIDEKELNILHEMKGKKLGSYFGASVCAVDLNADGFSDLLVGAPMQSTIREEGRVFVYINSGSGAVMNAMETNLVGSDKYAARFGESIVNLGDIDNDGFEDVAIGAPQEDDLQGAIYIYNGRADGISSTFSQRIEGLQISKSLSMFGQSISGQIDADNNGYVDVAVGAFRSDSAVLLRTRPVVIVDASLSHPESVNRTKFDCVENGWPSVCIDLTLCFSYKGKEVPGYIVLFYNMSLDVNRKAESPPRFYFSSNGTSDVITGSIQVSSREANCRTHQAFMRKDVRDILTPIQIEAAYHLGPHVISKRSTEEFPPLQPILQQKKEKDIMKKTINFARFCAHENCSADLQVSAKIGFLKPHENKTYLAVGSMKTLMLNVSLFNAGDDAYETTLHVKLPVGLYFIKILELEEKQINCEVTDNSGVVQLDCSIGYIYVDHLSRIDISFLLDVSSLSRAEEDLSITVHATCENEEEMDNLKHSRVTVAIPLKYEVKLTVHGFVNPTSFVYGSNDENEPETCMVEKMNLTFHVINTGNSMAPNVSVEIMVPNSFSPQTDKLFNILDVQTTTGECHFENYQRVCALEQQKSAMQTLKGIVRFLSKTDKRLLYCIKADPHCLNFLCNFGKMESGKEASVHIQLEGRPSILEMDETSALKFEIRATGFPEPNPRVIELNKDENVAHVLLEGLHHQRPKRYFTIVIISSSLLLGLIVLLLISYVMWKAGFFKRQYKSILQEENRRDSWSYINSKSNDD
UniProt P05556: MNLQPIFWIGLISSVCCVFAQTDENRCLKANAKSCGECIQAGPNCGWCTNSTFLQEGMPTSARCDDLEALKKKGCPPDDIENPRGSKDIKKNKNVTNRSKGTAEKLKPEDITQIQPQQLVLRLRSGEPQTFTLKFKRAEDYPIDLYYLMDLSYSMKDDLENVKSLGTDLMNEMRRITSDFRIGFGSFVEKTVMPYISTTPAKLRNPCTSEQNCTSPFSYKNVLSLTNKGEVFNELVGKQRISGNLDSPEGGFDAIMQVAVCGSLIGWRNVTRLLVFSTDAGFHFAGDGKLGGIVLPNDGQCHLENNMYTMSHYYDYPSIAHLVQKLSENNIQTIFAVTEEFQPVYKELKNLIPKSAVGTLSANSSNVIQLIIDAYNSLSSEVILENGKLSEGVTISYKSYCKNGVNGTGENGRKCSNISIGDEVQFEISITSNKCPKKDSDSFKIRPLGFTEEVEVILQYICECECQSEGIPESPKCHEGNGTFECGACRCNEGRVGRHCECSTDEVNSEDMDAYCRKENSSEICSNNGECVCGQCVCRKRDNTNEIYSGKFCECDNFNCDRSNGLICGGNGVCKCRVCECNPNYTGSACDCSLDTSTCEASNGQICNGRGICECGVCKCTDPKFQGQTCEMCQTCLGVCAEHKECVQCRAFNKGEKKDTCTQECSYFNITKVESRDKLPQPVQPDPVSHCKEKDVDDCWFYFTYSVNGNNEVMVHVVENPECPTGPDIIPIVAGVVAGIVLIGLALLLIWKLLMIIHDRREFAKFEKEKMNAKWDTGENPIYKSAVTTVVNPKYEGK
UniProt P10451, residues 17-314: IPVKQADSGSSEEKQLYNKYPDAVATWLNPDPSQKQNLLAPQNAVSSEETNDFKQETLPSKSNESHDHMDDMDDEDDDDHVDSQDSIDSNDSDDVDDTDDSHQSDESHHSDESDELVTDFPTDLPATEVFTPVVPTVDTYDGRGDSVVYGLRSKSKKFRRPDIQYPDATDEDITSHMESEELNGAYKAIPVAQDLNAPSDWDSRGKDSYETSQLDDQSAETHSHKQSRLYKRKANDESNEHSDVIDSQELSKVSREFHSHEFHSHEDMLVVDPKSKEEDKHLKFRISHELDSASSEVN

Results are given in words; binding and its absence hold for the method and conditions named. In cells and extracts the contact can be indirect. Some entries that bind do so weakly or less than the wild type.

This test deals with integrin α4β1 (human (endogenous in HN30-R8)) (UniProt P13612+P05556). Kind of test: co-IP; Dynabeads M-270 Epoxy coupled with antibody (CD44, integrin αV, β1, β6, β3); RIPA whole cell lysates of CDDP-resistant HN30-R8 cells; 4 °C; SDS-PAGE and Western blotting.

On to “Secreted phosphoprotein 1 (SPP1) (from UniProt P10451 17-314)”, for which the binding result is given as “binds”.
